Our source for the binding values is publication PMC12140344.

The chains behind the UniProt entries cited, without tags or fusion partners.
UniProt Q14258: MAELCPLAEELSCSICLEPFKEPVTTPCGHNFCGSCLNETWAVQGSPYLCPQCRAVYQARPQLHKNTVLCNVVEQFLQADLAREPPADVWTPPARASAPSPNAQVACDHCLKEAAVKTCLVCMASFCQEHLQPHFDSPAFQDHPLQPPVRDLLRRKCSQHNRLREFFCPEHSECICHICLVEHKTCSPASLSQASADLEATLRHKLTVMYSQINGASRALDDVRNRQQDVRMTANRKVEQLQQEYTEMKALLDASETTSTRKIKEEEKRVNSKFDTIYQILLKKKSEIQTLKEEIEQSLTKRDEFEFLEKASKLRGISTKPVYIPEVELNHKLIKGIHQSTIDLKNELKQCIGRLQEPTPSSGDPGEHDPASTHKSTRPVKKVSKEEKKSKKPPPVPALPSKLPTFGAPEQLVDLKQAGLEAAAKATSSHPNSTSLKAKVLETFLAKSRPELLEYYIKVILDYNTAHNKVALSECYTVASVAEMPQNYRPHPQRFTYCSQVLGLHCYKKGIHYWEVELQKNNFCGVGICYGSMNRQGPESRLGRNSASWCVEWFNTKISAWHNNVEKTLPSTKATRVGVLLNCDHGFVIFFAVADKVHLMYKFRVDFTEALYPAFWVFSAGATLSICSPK

In the assay the target is TRIM25 immunoprecipitated for mass spectrometry (UniProt Q14258). Put plainly: affinity purification with mass spectrometry; immunoprecipitation of TRIM25 and relative quantification of proteins in control and TRIM25‐overexpressing cells; cell line not stated.

These are yes or no findings as the source states them, for the method shown. In cells and extracts the contact can be indirect. A yes stands for co-enrichment or nearness to the bait. Other partners may have been found.

B1: INSIG1 found in the TRIM25 immunoprecipitate by mass spectrometry (protein, UniProt O15503 1-277)
chain: MPRLHDHFWSCSCAHSARRRGPPRASAAGLAAKVGEMINVSVSGPSLLAAHGAPDADPAPRGRSAAMSGPEPGSPYPNTWHHRLLQRSLVLFSVGVVLALVLNLLQIQRNVTLFPEEVIATIFSSAWWVPPCCGTAAAVVGLLYPCIDSHLGEPHKFKREWASVMRCIAVFVGINHASAKLDFANNVQLSLTLAALSLGLWWTFDRSRSGLGLGITIAFLATLITQFLVYNGVYQYTSPDFLYIRSWLPCIFFSGGVTVGNIGRQLAMGVPEKPHSD
B1: the binding result is “binds”.
